# The other results are listed elsewhere or left out. Further columns of the screen follow, without active or inactive calls. Most of these compounds were active or inconclusive in the main read-out, so they are no random draw. Words in brackets tell the shape of the fitted curve; partial curves, single points and poor fits give uncertain potencies.
# Assay: IkB Signaling
# Conditions: ABC-DLBCL IkBa-CBG/CBR dual luciferase ratio (green luciferase fused to IkBa over red control in OCI-Ly3 lymphoma cells), 4 h
# Method in brief: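 Curves were fitted separately to fusion (green), unfused (red) and ratio luminescence, then classed by r2, magnitude and activity. Cells: OCI-Ly3, 4 h compound plus doxycycline at 37C; 10 uM MG-132 defined full response.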
# [1] = measured here: control luc red channel unless noted
smiles,measurement,setting,value
CC(=O)N1CCc2c(sc3c2c(=O)n(-c2cccc(Cl)c2)c(=O)n3Cc2ccc(F)cc2Cl)C1,AC50,[1],"39.8 µM [falling, single point]"
Cc1nn(C)c2c1c(C(F)(F)F)cc(=O)n2CC(=O)N1CCN(c2ccccc2F)CC1,AC50,[1],"25.1 µM [falling, partial curve]"
O=C(Cn1c(=O)n(-c2ccccc2)c(=O)c2c3c(sc21)CCCC3)Nc1ccccc1,AC50,[1],"0.0251 µM [rising, full curve, poor fit]"
CCOC(=O)c1c(NC(=O)/C=C/c2ccc(OCC)cc2)sc2c1CCCC2,AC50,[1],"3.98 µM [rising, partial curve]"
CCNc1sc(C(=O)c2cccs2)c(N)c1-c1nc2ccccc2s1,AC50,measured here: IkB-luc green channel,"7.94 µM [rising, full curve]"
same,AC50,measured here: control luc red channel,"6.31 µM [falling, partial curve]"
O=C(Oc1cccc2c(O)cccc12)c1ccccc1,AC50,[1],"20 nM [falling, full curve] [measured here: IkB-luc green channel]"
O=C(CCC1N=C2c3ccccc3N=C(SCc3ccccc3Cl)N2C1=O)N1CCN(c2ccccc2)CC1 (stereo not drawn),AC50,[1],"0.158 µM [rising, full curve]"
O=C1c2cccc3cccc(c23)N1CN1CCN(c2ccccn2)CC1,AC50,[1],"31.6 µM [falling, partial curve]"
Cc1ccc(C)c(NC(=O)CSc2ncc3c(n2)-c2cc(Cl)ccc2N(Cc2ccccc2F)S3(=O)=O)c1,AC50,[1],"1.26 µM [falling, full curve]"
CC1(C)CC(=O)c2cc(-c3nc(-c4ccc(Cl)cc4)cs3)c(=O)n(-c3ccc(F)cc3)c2C1,AC50,[1],"39.8 µM [falling, single point]"
COc1ccc(CN(Cc2ccco2)c2cnc(S(C)(=O)=O)nc2C(=O)Nc2ccc(C)c(C)c2)cc1,AC50,[1],"25.1 µM [falling, single point]"
Cc1cc(OCC(=O)Nc2cc(-c3nn4c(C)nnc4s3)ccc2C)ccc1Cl,AC50,[1],"7.94 µM [rising, single point] [measured here: IkB-luc green channel]"
COCc1[nH]nc2c1C(C1C=CCCC1)C(C#N)=C(N)O2 (stereo not drawn),AC50,[1],"10 µM [falling, partial curve]"
COc1ccc(-c2cc(C(F)(F)F)nc(NCCc3ccccc3)n2)cc1,AC50,[1],"20 µM [falling, single point]"
Cc1ccc(NC(=O)CSc2nc3ccc(NC(=O)c4ccco4)cc3s2)c(C)c1,AC50,[1],"25.1 µM [falling, partial curve]"
CC(C)(C)c1ccc(OCC(=O)NC(Cc2c[nH]c3ccccc23)C(=O)O)cc1 (stereo not drawn),AC50,[1],"20 µM [falling, single point]"
CC(=O)Nc1ccc(NS(=O)(=O)c2cc3c4c(c2)CC(=O)N4CCC3)cc1,AC50,[1],"12.6 µM [rising, partial curve]"
O=C(c1ccco1)N1CCN(C(=O)c2cc(-c3ccccn3)nc3ccccc23)CC1,AC50,[1],"12.6 µM [falling, partial curve, poor fit]"
COc1cc(C(=O)NCCS(=O)(=O)N2CCN(c3ccccc3)CC2)cc(OC)c1OC,AC50,[1],"3.16 µM [falling, full curve]"
COc1ccc(-c2cc3nc(C)c(CCC(=O)N4CCN(c5cc(C)ccc5C)CC4)c(C)n3n2)c(OC)c1,AC50,[1],"1 µM [falling, full curve]"
COc1ccc(N2CCN(S(=O)(=O)CCNC(=O)c3ccc(OC(C)C)cc3)CC2)cc1,AC50,[1],"1.58 µM [falling, partial curve]"
CN(C(=O)CSc1nc2ccc(NC(=O)COc3ccccc3Cl)cc2s1)c1ccccc1,AC50,[1],"15.8 µM [falling, partial curve]"
COc1cccc2sc(Nc3nc(C)c(C(C)=O)s3)nc12,AC50,[1],"3.98 µM [rising, partial curve] [measured here: IkB-luc green channel]"
COc1ccccc1N1CCN(C(=O)C2CCCN(S(=O)(=O)c3ccc4c(c3)oc(=O)n4C)C2)CC1 (stereo not drawn),AC50,[1],"10 µM [falling, partial curve]"
CCOC(=O)c1cccc(NC(=O)c2ccc3snnc3c2)c1,AC50,[1],"39.8 µM [falling, single point]"
CCc1ccc(-n2c(N3CCN(c4cccc(C)c4C)CC3)nc3ccccc3c2=O)cc1,AC50,[1],"15.8 µM [falling, single point]"
Cc1ccc(Nc2nc(N)nc(N)c2S(=O)(=O)c2ccccc2)cc1,AC50,[1],"20 µM [falling, single point]"
COC(=O)c1sccc1S(=O)(=O)N(CC(=O)NCc1ccccc1)c1ccc(C)cc1,AC50,[1],"20 µM [falling, single point]"
COc1ccccc1C(=O)Nc1nc(-c2ccc(Br)cc2)ns1,AC50,[1],"1 µM [falling, partial curve]"
Fc1cccc(-c2cc3nc4c(c(N5CCN(c6cnccn6)CC5)n3n2)CCCC4)c1,AC50,[1],"5.01 µM [falling, partial curve]"
Cc1cc(C(=O)COc2cccc(-n3cnnn3)c2)c(C)n1-c1ccccc1,AC50,[1],"12.6 µM [falling, partial curve]"
CCOC(=O)CN1C(C(=O)c2ccccc2)=C(OC(=O)c2ccccc2)c2ccccc2S1(=O)=O,AC50,[1],"15.8 µM [falling, partial curve]"
Cc1ccc(NC(=O)C2CCCN(S(=O)(=O)c3ccc(F)cc3)C2)cc1 (stereo not drawn),AC50,[1],"15.8 µM [falling, partial curve]"
CC(C(=O)NCc1ccc2c(c1)OCO2)N1c2cccc3cccc(c23)S1(=O)=O (stereo not drawn),AC50,[1],"12.6 µM [falling, partial curve]"
CC1=C(c2ccc(C)c(C)c2)S(=O)(=O)N=C1N1CCC(C(=O)NCc2ccc(Cl)cc2)CC1,AC50,[1],"20 µM [falling, partial curve]"
O=C(NCCC1=CCCCC1)c1ccc2c(c1)N(Cc1ccc(Cl)cc1)C(=O)c1ccccc1S2=O (stereo not drawn),AC50,[1],"10 µM [falling, partial curve]"
O=C(OCc1nc2ccccc2s1)C1CCN(C2=NS(=O)(=O)c3ccccc32)CC1,AC50,[1],"3.98 µM [falling, partial curve]"

# Reprinted at random: 2 entries already listed, in no set order.
smiles,measurement,setting,value
COc1ccc(-c2cc3nc(C)c(CCC(=O)N4CCN(c5cc(C)ccc5C)CC4)c(C)n3n2)c(OC)c1,AC50,[1],"1 µM [falling, full curve]"
COc1cccc2sc(Nc3nc(C)c(C(C)=O)s3)nc12,AC50,[1],"3.98 µM [rising, partial curve] [measured here: IkB-luc green channel]"
